Laboratory results: the supplement of paper PMC6445147
Values scatter widely in this assay.

B1: human tRNA-Pro; a variant is named by its letters at N, in order (parent)
chain: GGCTCGTTGGTCTAGNGGTATGATTCTCGCTTAGGGTGCGAGAGGTCCCGGGTTCNNATCCCGGACGAGCCC

What was measured:
[1] = variants of: B1; experiment: tRNA Pol-III promoter activity, log2 (circRNA frequency / plasmid DNA frequency) (log2 ratio); higher = stronger promoter activity; conditions: HEK293T; construct: no Pol-II promoter ((-)CMV library)
[2] = variants of: B1; experiment: tRNA 3' processing efficiency (processed reads / all reads, maximum-likelihood estimate) (fraction); higher = more efficient 3' processing; conditions: HEK293T; construct: no Pol-II promoter ((-)CMV library)
[3] = variants of: B1; experiment: tRNA 5' processing efficiency (processed reads / all reads, maximum-likelihood estimate) (fraction); higher = more efficient 5' processing; conditions: HEK293T; construct: CMV Pol-II promoter ((+)CMV library, decapped)

Row | Variant | tRNA Pol-III promoter activity (log2) [1] | tRNA 3' processing efficiency [2] | tRNA 5' processing efficiency [3]
1 | TAA T54A A58G | 2.55 | 0.8 | –
2 | CAA T54A | 2.65 | 0.86 | 0.25
3 | TAA T19G T53A | 6.03 | 0.37 | –
4 | TAA T19G T53G | 3.68 | 0.4 | –
5 | CAA T53A A58C | 3.94 | 0.25 | –
6 | GAA T19C T53A T59G | 3.11 | 0.22 | –
7 | GAA T19C T53A T59A | 4.93 | 0.25 | –
8 | AAA T59C | 3.32 | 0.57 | –
9 | AAA T59A | 1.69 | 0.42 | –
10 | AAA T59G | 2.35 | 0.26 | 0.33
11 | GAA T53C T59C | 2.3 | 0.45 | –
12 | GAA T59A | 0.894 | 0.36 | 0.25
13 | GAA T59G | 2.01 | 0.38 | 0.29
14 | GAA T59C | 2.84 | 0.41 | 0.18
15 | GAA T19A T53G T59C | 3.93 | 0.25 | –
16 | GAA T19A A58C T59C | 3.93 | 0.25 | –
17 | CAA T19G T53C | 3.45 | 0.75 | –
18 | GAA T19A A20T T53G | 5.03 | 0.5 | –
19 | GAA T19A A20T T53A | 4.23 | 0.38 | –
20 | CAA T53A T54C | 6.51 | 0.5 | –
21 | GAA T19A T53C A58T | 2.16 | 0.57 | –
22 | TAA T53G C55T | 3.12 | 0.38 | –

Row | Variant | tRNA Pol-III promoter activity (log2) [1] | tRNA 3' processing efficiency [2] | tRNA 5' processing efficiency [3]
23 | GAA T19A T59G | 1.04 | 0.43 | –
24 | GAA T19A T59C | 2.41 | 0.6 | –
25 | GAA T19A T59A | 2.69 | 0.08 | –
26 | GAA T19C T54C A58G | 4.34 | 0.62 | –
27 | GAA T19G A58T T59C | 3.45 | 0.17 | –
28 | AAA T53G | 0.588 | 0.38 | –
29 | AAA T53A | 3.13 | 0.49 | 0.25
30 | AAA T53C | 0.891 | 0.37 | –
31 | TAA T53A A58G | 5.53 | 0.52 | –
32 | TAA T53A A58T | 3.45 | 0.3 | –
33 | TAA T53A A58C | 4.04 | 0.71 | –
34 | AAA T19A C55T A58T | 6.64 | 0.15 | –
35 | GAA T8G T53C | 0.334 | 0.2 | –
36 | GAA T8G T53A | -0.116 | 0.25 | –
37 | GAA T8G T53G | 1.14 | 0.11 | –
38 | GAA T19G T53A T59A | 6.51 | 0.5 | –
39 | AAA T54C A58C | 5.03 | 0.7 | –
40 | GAA T8G T54G A58T | 2.43 | 0.17 | –
41 | GAA T19G A58T | 1.04 | 0.4 | –
42 | GAA T19G A58G | 4.48 | 0.82 | –
43 | GAA T19A T53A T59G | 4.45 | 0.13 | –
44 | GAA T19A T53A T59C | 4.41 | 0.29 | –

Looked up one by one from the entries so far:
Row | Variant | tRNA Pol-III promoter activity (log2) [1] | tRNA 3' processing efficiency [2] | tRNA 5' processing efficiency [3]
18 | GAA T19A A20T T53G | 5.03 | 0.5 | –
25 | GAA T19A T59A | 2.69 | 0.08 | –
26 | GAA T19C T54C A58G | 4.34 | 0.62 | –

Next entries.

Row | Variant | tRNA Pol-III promoter activity (log2) [1] | tRNA 3' processing efficiency [2] | tRNA 5' processing efficiency [3]
45 | TAA T19C T59G | 6.94 | 0.62 | –
46 | TAA T19A A58T | 3.14 | 0.17 | –
47 | GAA T19C | -1.76 | 0.59 | 0.5
48 | GAA T19A | -0.92 | 0.28 | 0.21
49 | GAA T19G | -1.21 | 0.36 | 0.35
50 | GAA T19G T59A | 2.54 | 0.74 | –
51 | GAA T19G T59G | 2.01 | 0.18 | –
52 | GAA T19G T59C | 1.54 | 0.33 | –
53 | CAA T19A T59C | 4.74 | 0.71 | –
54 | GAA T19A T53A A58G | 4.03 | 0.4 | –
55 | GAA T19C T53A A58T | 3.94 | 0.4 | –
56 | GAA T19A T53G A58T | 1.68 | 0.25 | –
57 | GAA T19A T53G A58G | 4.36 | 0.25 | –
58 | GAA T19G C55T | -0.479 | 0.29 | –
59 | GAA T19G C55G | -0.323 | 0.25 | 0.2
60 | GAA T19A A20G A58C | 3.29 | 0.56 | –
61 | GAA T19C T53C | 2.9 | 0.74 | –
62 | GAA T19C T53G | 0.0703 | 0.25 | –
63 | GAA T19C T53A | 1.73 | 0.41 | –
64 | CAA T54A A58C | 4.75 | 0.29 | –
65 | CAA T19G T59G | 5.56 | 0.41 | –
66 | GAA T19A A58G | 0.115 | 0.3 | 0.5

Row | Variant | tRNA Pol-III promoter activity (log2) [1] | tRNA 3' processing efficiency [2] | tRNA 5' processing efficiency [3]
67 | GAA T19A A58C | 1.6 | 0.18 | 0.11
68 | GAA T19A A58T | 2.5 | 0.32 | 0.4
69 | TAA T53C T59C | 6.75 | 0.29 | –
70 | GAA T54G | -2.58 | 0.31 | 0.31
71 | GAA T54C | -2.46 | 0.25 | 0.5
72 | GAA T54A | 0.713 | 0.36 | 0.29
73 | AAA T19G | 0.92 | 0.58 | –
74 | AAA T19A | 0.25 | 0.2 | –
75 | TAA T53A T59G | 5.53 | 0.67 | –
76 | GAA T53G C55T | 0.135 | 0.71 | –
77 | GAA T19A T53C | 1.5 | 0.48 | –
78 | GAA T19A T53A | 2.21 | 0.26 | 0.33
79 | GAA T19A T53G | 0.674 | 0.35 | –
80 | GAA T19A A20G A41T T53A T54A | 4.68 | 0.8 | –
81 | AAA T19G A58G T59G | 5.74 | 0.32 | –
82 | GAA T53A T54A | -0.547 | 0.25 | 0.25
83 | GAA T53A A58G T59G | 5.51 | 0.22 | –
84 | GAA T53A A58G T59A | 4.2 | 0.56 | –
85 | GAA T53A A58G T59C | 3.68 | 0.2 | –
86 | CAA T19G A58G | 3.03 | 0.25 | –
87 | CAA T19G A58T | 2.92 | 0.25 | –
88 | CAA T19G A58C | 5.58 | 0.5 | –

Row | Variant | tRNA Pol-III promoter activity (log2) [1] | tRNA 3' processing efficiency [2] | tRNA 5' processing efficiency [3]
89 | GAA T19G A58G T59A | 4.67 | 0.2 | –
90 | GAA T19G A58G T59G | 7.2 | 0.11 | –
91 | GAA T19A A20G T59G | 4.03 | 0.25 | –
92 | GAA T19G T53A | 1 | 0.25 | 0.33
93 | GAA T19G T53C | 0.431 | 0.2 | –
94 | GAA T19G T53G | 0.453 | 0.45 | –
95 | AAA T8G T53C | 5.74 | 0.29 | –
96 | AAA T8G T53A | 2.9 | 0.4 | –
97 | TAA T19G C55G | 2.02 | 0.25 | –
98 | AAA T19A T53A | 4.67 | 0.2 | –
99 | GAA T8G T19C A58G | 4.72 | 0.67 | –
100 | GAA T19G A20T T59G | 3.36 | 0.25 | –
101 | TAA T19A | 0.0813 | 0.49 | –
102 | TAA T19G | 1.82 | 0.43 | –
103 | AAA T53A T59C | 6.62 | 0.17 | –
104 | GAA T54A A58T T59C | 5.51 | 0.67 | –
105 | GAA T53G T59A | 0.771 | 0.25 | –
106 | TAA T8G T19G | 4.7 | 0.32 | –
107 | TAA T59G | 2.13 | 0.27 | –
108 | TAA T59C | 3.34 | 0.65 | –
109 | TAA T59A | 1.75 | 0.21 | –
110 | TAC A14C | 6.36 | 0.4 | –
